Measurements reported in PubChem BioAssay AID686938 (Drosophila RNAi Screening Center, 2013)
The deposit covers about 23,000 reagents; shown is a random part of those that have a named target and a result. In the full data, 75 (0.33%) are marked active. 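Raw plate signals without normalisation; calls rest on plate z-scores that were not deposited; ratio present for only 364 wells.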 The numbers tell different reagents against one gene apart. A plus sign joins genes that one reagent is predicted to hit. Not given: the dose of the treatment.

Assay: 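Looking for CRAC channel components and the factors controlling them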 (primary screen)
System: Drosophila S2R+ cells
Knock-down reagent: long dsRNA against Drosophila genes, about 0.25 µg dsRNA per well, roughly 10,000 cells
Time to read-out: 5 days of knock-down before the calcium assay
Treatment: thapsigargin (SERCA pump blocker) to empty calcium stores; entry signal taken 4 min after adding it
Measured: 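Per-well fluo-4 fluorescence in two replicates, unnormalised, measured in resting cells and 4 min after store depletion by the SERCA blocker thapsigargin; ratio of the two present in few wells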
Direction: calcium entry signal: higher = stronger calcium signal after store depletion; entry to resting ratio: higher = more calcium entry relative to resting level; resting calcium signal: higher = higher resting calcium signal
Rule for the call: 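Hit if the duplicate-averaged plate z-score for entry over resting signal is under −3; wells with weak total dye signal (Fmax z < −2) or more than 5 off-targets removed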
Meaning of the calls: active = strongly reduced calcium entry; inactive = no strong reduction

| Target gene | reagent no. | calcium entry signal, replicate 1 (fluorescence units) | calcium entry signal, replicate 2 (fluorescence units) | entry to resting ratio | resting calcium signal, replicate 1 (fluorescence units) | resting calcium signal, replicate 2 (fluorescence units) | Call |
| --- | --- | --- | --- | --- | --- | --- | --- |
| CG15528 | 1 | 4.00e7 | 6.90e7 | – | 2.01e7 | 2.61e7 | inactive |
| CG15170 | 1 | 3.50e7 | 4.62e7 | – | 1.81e7 | 1.86e7 | inactive |
| CG10581 | 1 | 3.38e7 | 4.93e7 | – | 1.58e7 | 2.13e7 | inactive |
| Plzf | 1 | 4.31e7 | – | – | 2.13e7 | – | inactive |
| Acn | 1 | 5.47e7 | – | – | 2.79e7 | – | inactive |
| DUBAI | 1 | 3.44e7 | 4.03e7 | – | 1.51e7 | 1.79e7 | inactive |
| CG42580 | 1 | 3.15e7 | 4.58e7 | – | 1.73e7 | 2.03e7 | inactive |
| CanB | 1 | 2.67e7 | 3.17e7 | – | 1.33e7 | 1.45e7 | inactive |
| TwdlJ | 1 | 1.94e7 | 3.45e7 | – | 1.11e7 | 1.59e7 | inactive |
| superdeath | 1 | 6.20e7 | 2.85e7 | – | 2.91e7 | 1.59e7 | inactive |
| Lap1 | 1 | 3.42e7 | 4.59e7 | – | 1.75e7 | 2.06e7 | inactive |
| CG1354 | 1 | 3.57e7 | 4.71e7 | – | 1.82e7 | 2.01e7 | inactive |
| CG6225 | 1 | 3.78e7 | 3.82e7 | – | 1.98e7 | 1.94e7 | inactive |
| lncRNA:CR43434 | 1 | 3.81e7 | 3.54e7 | – | 1.96e7 | 1.78e7 | inactive |
| Ilp7 | 1 | 2.18e7 | 3.24e7 | – | 1.12e7 | 1.47e7 | inactive |
| CG12310 | 1 | 3.65e7 | 6.93e7 | – | 1.80e7 | 2.32e7 | inactive |
| CG2938 | 1 | 3.63e7 | 5.27e7 | – | 1.79e7 | 2.40e7 | inactive |
| CG11583 | 1 | 2.95e7 | 2.72e7 | – | 2.49e7 | 1.40e7 | inactive |
| CG31855 | 1 | 2.82e7 | 2.22e7 | – | 1.35e7 | 1.09e7 | inactive |
| dj-1beta | 1 | 4.36e7 | 6.44e7 | – | 2.16e7 | 2.60e7 | inactive |
| Fer1HCH | 1 | 2.29e7 | 2.63e7 | – | 1.32e7 | 1.44e7 | inactive |
| CG31827 + CG18478 | 1 | 4.97e7 | 3.62e7 | – | 2.17e7 | 1.61e7 | inactive |
| CG31327 | 1 | 3.53e7 | 4.16e7 | – | 2.12e7 | 2.00e7 | inactive |
| CG13465 | 1 | 5.23e7 | 7.23e7 | – | 2.40e7 | 2.85e7 | inactive |
| t | 1 | 2.85e7 | 4.38e7 | – | 1.48e7 | 2.11e7 | inactive |
| CG11110 | 1 | 1.84e7 | 2.53e7 | – | 9.70e6 | 1.24e7 | inactive |
| Vps16A | 1 | 2.48e7 | 3.02e7 | – | 1.67e7 | 1.75e7 | inactive |
| Tsp29Fb | 1 | 3.52e7 | 4.34e7 | – | 1.56e7 | 1.96e7 | inactive |
| CG6236 | 1 | 3.80e7 | 4.49e7 | – | 1.70e7 | 2.02e7 | inactive |
| ct | 1 | 2.07e7 | 2.54e7 | – | 1.18e7 | 1.46e7 | inactive |
| pn | 1 | 2.77e7 | 3.67e7 | – | 1.32e7 | 1.73e7 | inactive |
| AdipoR | 1 | 3.55e7 | 2.83e7 | – | 1.66e7 | 1.38e7 | inactive |
| CG13705 | 1 | 2.86e7 | 4.54e7 | – | 1.26e7 | 1.77e7 | inactive |
| CG13705 | 2 | 3.54e7 | 4.16e7 | – | 1.85e7 | 1.90e7 | inactive |
| CG11975 | 1 | 4.25e7 | 4.10e7 | – | 1.76e7 | 1.90e7 | inactive |
| Gr59c | 1 | 3.78e7 | 4.43e7 | – | 1.88e7 | 1.99e7 | inactive |
| Tgt | 1 | 5.16e7 | – | – | 2.46e7 | – | inactive |

Continued (7 carried over from the part before).
| Target gene | reagent no. | calcium entry signal, replicate 1 (fluorescence units) | calcium entry signal, replicate 2 (fluorescence units) | entry to resting ratio | resting calcium signal, replicate 1 (fluorescence units) | resting calcium signal, replicate 2 (fluorescence units) | Call |
| --- | --- | --- | --- | --- | --- | --- | --- |
| pn | 1 | 2.77e7 | 3.67e7 | – | 1.32e7 | 1.73e7 | inactive |
| AdipoR | 1 | 3.55e7 | 2.83e7 | – | 1.66e7 | 1.38e7 | inactive |
| CG13705 | 1 | 2.86e7 | 4.54e7 | – | 1.26e7 | 1.77e7 | inactive |
| CG13705 | 2 | 3.54e7 | 4.16e7 | – | 1.85e7 | 1.90e7 | inactive |
| CG11975 | 1 | 4.25e7 | 4.10e7 | – | 1.76e7 | 1.90e7 | inactive |
| Gr59c | 1 | 3.78e7 | 4.43e7 | – | 1.88e7 | 1.99e7 | inactive |
| Tgt | 1 | 5.16e7 | – | – | 2.46e7 | – | inactive |
| COX3 (retired record) | 1 | 3.81e7 | 4.06e7 | – | 2.21e7 | 2.04e7 | inactive |
| Rep | 1 | 3.76e7 | 3.31e7 | – | 1.80e7 | 1.74e7 | inactive |
| CG17974 | 1 | 4.50e7 | 5.60e7 | – | 2.41e7 | 2.36e7 | inactive |
| Mfap1 | 1 | 3.05e7 | 2.75e7 | – | 1.87e7 | 1.66e7 | inactive |
| CG2233 | 1 | 2.61e7 | 2.54e7 | – | 1.19e7 | 1.26e7 | inactive |
| CG31636 | 1 | 3.20e7 | 2.67e7 | – | 1.55e7 | 1.36e7 | inactive |
| Rtca | 1 | 3.58e7 | 3.50e7 | – | 1.68e7 | 1.75e7 | inactive |
| CG12360 (retired record) | 1 | 2.53e7 | 5.04e7 | – | 1.31e7 | 8.84e7 | inactive |
| Dera | 1 | 3.46e7 | 4.41e7 | – | 1.44e7 | 2.09e7 | inactive |
| Dera | 2 | 2.51e7 | 3.07e7 | – | 1.23e7 | 1.42e7 | inactive |
| Rpn9 | 1 | 3.71e7 | 3.75e7 | – | 1.96e7 | 1.92e7 | inactive |
| CG32313 | 1 | 3.75e7 | 3.47e7 | – | 2.21e7 | 1.59e7 | inactive |
| Acam + CG17770 | 1 | 4.53e7 | 4.84e7 | – | 2.13e7 | 2.00e7 | inactive |
| Acam + CG17770 | 2 | 4.47e7 | 5.61e7 | – | 2.09e7 | 2.40e7 | inactive |
| CG17560 | 1 | 2.25e7 | 2.42e7 | – | 1.16e7 | 3.73e7 | inactive |
| bor | 1 | 2.72e7 | 3.20e7 | – | 1.30e7 | 9.23e7 | inactive |
| Polr1B | 1 | 2.41e7 | – | – | 1.25e7 | – | inactive |
| NC2beta | 1 | 5.72e7 | – | – | 2.75e7 | – | inactive |
| Syn | 1 | 2.98e7 | 2.82e7 | – | 1.38e7 | 1.50e7 | inactive |
| CysRS-m | 1 | 3.38e7 | 3.76e7 | – | 1.45e7 | 1.85e7 | inactive |
| Cht10 | 1 | 4.59e7 | 4.75e7 | – | 2.12e7 | 2.02e7 | inactive |
| Cht10 | 2 | 3.55e7 | – | – | 1.78e7 | – | inactive |
| Cht10 | 3 | 4.16e7 | 5.03e7 | – | 2.04e7 | 2.15e7 | inactive |
| osi | 1 | 4.08e7 | 3.93e7 | – | 1.84e7 | 1.82e7 | inactive |
| E(spl)mdelta-HLH | 1 | 3.86e7 | 5.76e7 | – | 2.00e7 | 2.15e7 | inactive |
| Mulk | 1 | 3.80e7 | – | – | 1.95e7 | – | inactive |
| CG12863 | 1 | 2.90e7 | 4.37e7 | – | 1.59e7 | 1.91e7 | inactive |
| CG7079 | 1 | 4.33e7 | 3.97e7 | – | 5.79e7 | 1.83e7 | inactive |
| Ndc80 | 1 | 3.73e7 | 3.66e7 | – | 1.84e7 | 2.06e7 | inactive |
| Ndc80 | 2 | 2.29e7 | 2.49e7 | – | 1.36e7 | 1.11e7 | inactive |
| boss | 1 | 3.91e7 | 6.79e7 | – | 2.08e7 | 2.53e7 | inactive |
| BomS6 | 1 | 4.48e7 | 3.87e7 | – | 2.42e7 | 1.83e7 | inactive |
| Dis3l2 | 1 | 4.27e7 | 3.44e7 | – | 1.91e7 | 1.88e7 | inactive |
| wam | 1 | 3.43e7 | 4.94e7 | – | 1.77e7 | 2.15e7 | inactive |
| CG7289 | 1 | 4.40e7 | – | – | 2.56e7 | – | inactive |
| CG8617 | 1 | 2.10e7 | 3.53e7 | – | 1.16e7 | 1.42e7 | inactive |
| Fic | 1 | 4.66e7 | – | – | 2.25e7 | – | inactive |
| CG3655 | 1 | 2.68e7 | 3.29e7 | – | 1.32e7 | 1.34e7 | inactive |
| CG3655 | 2 | 4.45e7 | 7.16e7 | 2 | 2.24e7 | 2.57e7 | inactive |
| CG3655 | 3 | 4.05e7 | 5.82e7 | 2 | 2.05e7 | 2.45e7 | inactive |
| CG3655 | 4 | 2.42e7 | 3.53e7 | – | 1.24e7 | 1.50e7 | inactive |
